No constants are given. Whether binding was seen depends on the method and setting. For part of these data: Binding seen in cells or lysates may run through a third protein. Some binding calls cover weakened binding; strength is not graded here. Where a sequence is shown, tags or fusion partners need not be part of it.
T1: His6-tagged PKCι Δ223 (human)
T1 sequence: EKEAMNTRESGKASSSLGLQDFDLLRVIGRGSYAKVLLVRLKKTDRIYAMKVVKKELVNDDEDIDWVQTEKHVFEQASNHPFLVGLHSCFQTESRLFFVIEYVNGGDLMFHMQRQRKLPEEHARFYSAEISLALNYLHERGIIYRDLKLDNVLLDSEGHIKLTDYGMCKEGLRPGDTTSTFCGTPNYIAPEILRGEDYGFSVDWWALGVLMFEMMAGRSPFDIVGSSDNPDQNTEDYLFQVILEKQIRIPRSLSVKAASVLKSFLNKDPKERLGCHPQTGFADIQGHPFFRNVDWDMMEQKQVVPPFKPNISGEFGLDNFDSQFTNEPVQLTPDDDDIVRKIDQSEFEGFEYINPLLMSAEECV

T2: GST-PKCζ wild type (1-592) (human) (UniProt Q05513)
T2 sequence: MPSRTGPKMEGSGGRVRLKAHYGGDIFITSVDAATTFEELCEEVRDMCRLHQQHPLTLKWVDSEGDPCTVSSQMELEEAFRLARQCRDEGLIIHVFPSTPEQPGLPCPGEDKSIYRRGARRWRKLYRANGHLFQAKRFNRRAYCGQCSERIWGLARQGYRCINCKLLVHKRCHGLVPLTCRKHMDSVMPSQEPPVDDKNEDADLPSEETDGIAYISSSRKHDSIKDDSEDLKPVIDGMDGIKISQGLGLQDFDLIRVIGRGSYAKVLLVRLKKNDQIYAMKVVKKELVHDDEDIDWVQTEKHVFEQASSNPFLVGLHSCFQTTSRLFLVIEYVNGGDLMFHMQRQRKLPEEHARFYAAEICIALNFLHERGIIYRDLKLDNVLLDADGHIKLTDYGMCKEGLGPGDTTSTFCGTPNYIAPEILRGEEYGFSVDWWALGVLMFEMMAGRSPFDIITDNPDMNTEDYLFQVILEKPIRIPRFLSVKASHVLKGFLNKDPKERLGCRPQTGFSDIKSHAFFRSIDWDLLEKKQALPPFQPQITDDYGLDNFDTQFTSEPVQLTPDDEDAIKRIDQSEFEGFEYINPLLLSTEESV


How the values were obtained:
[1] = target: T1, His6-tagged PKCι Δ223 (human); test: AlphaScreen interaction assay
[2] = target: T2, GST-PKCζ wild type (1-592) (human); test: GST pull-down from co-transfected HEK293 cells, immunoblot

| binding [1] | binding [2] | Binder |
| --- | --- | --- |
| binds |  | GST-C1 (PKCι 131-186) (protein, not shown: a dimerising Fc or GST) GHTFQAKRFNRRAHCAICTDRIWGLGRQGYKCINCKLLVHKKCHKLVTIECGRHSL |
| binds |  | GST-PSR-C1 (PKCι 100-185) (protein, not shown: a dimerising Fc or GST) VPERPGMPCPGEDKSIYRRGARRWRKLYCANGHTFQAKRFNRRAHCAICTDRIWGLGRQGYKCINCKLLVHKKCHKLVTIECGRHS |
|  | binds | myc-tagged PDK1 (enzyme, not shown: small tags and cut ends) MARTTSQLYDAVPIQSSVVLCSCPSPSMVRTQTESSTPPGIPGGSRQGPAMDGTAAEPRPGAGSLQHAQPPPQPRKKRPEDFKFGKILGEGSFSTVVLARELATSREYAIKILEKRHIIKENKVPYVTRERDVMSRLDHPFFVKLYFTFQDDEKLYFGLSYAKNGELLKYIRKIGSFDETCTRFYTAEIVSALEYLHGKGIIHRDLKPENILLNEDMHIQITDFGTAKVLSPESKQARANSFVGTAQYVSPELLTEKSACKSSDLWALGCIIYQLVAGLPPFRAGNEYLIFQKIIKLEYDFPEKFFPKARDLVEKLLVLDATKRLGCEEMEGYGPLKAHPFFESVTWENLHQQTPPKLTAYLPAMSEDDEDCYGNYDNLLSQFGCMQVSSSSSSHSLSASDTGLPQRSGSNIEQYIHDLDSNSFELDLQFSEDEKRLLLEKQAGGNPWHQFVENNLILKMGPVDKRKGLFARRRQLLLTEGPHLYYVDPVNKVLKGEIPWSQELRPEAKNFKTFFVHTPNRTYYLMDPSGNAHKWCRKIQEVWRQRYQSHPDAAVQ |

Reference: patent US20140017701A1, “CHIMERIC PDK1 KINASES” (priority 2011, published 2014)
